Among the data in the supplement of paper PMC12819154, “High-throughput peptide-centric local stability assay extends protein–ligand identification to membrane proteins, tissues and bacteria” (Nature Structural & Molecular Biology, 2025) are log2 fold change values, retold here.

Chains of the proteins cited; added tags and fusions are not shown. Lines headed by an entry give the natural chain unless they say otherwise; changes in a name come on top.
UniProt P56959: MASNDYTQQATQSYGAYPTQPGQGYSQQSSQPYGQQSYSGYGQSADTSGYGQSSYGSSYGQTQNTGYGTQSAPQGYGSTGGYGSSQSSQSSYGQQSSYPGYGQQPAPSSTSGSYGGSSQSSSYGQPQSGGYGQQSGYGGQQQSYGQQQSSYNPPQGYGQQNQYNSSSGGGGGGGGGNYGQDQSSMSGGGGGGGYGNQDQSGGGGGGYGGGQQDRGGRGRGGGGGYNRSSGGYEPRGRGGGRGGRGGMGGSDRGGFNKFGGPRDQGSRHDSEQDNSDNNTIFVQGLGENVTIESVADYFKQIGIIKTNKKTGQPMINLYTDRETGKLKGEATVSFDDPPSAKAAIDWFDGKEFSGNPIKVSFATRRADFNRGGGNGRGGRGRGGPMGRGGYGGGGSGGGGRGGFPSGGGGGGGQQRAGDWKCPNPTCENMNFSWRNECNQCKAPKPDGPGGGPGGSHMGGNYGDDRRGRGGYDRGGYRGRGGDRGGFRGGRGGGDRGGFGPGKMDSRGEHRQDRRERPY
UniProt P62774, whole entry: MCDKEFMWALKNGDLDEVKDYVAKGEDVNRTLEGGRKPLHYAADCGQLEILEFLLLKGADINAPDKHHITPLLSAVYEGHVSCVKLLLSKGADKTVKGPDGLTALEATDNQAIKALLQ
UniProt P54797: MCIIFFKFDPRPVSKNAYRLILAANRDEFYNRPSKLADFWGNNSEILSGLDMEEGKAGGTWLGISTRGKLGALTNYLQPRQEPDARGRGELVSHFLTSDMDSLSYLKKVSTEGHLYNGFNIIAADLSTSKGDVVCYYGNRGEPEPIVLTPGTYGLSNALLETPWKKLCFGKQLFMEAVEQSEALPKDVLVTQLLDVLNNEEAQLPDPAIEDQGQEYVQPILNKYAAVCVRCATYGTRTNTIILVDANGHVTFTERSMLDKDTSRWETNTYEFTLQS
UniProt P58283: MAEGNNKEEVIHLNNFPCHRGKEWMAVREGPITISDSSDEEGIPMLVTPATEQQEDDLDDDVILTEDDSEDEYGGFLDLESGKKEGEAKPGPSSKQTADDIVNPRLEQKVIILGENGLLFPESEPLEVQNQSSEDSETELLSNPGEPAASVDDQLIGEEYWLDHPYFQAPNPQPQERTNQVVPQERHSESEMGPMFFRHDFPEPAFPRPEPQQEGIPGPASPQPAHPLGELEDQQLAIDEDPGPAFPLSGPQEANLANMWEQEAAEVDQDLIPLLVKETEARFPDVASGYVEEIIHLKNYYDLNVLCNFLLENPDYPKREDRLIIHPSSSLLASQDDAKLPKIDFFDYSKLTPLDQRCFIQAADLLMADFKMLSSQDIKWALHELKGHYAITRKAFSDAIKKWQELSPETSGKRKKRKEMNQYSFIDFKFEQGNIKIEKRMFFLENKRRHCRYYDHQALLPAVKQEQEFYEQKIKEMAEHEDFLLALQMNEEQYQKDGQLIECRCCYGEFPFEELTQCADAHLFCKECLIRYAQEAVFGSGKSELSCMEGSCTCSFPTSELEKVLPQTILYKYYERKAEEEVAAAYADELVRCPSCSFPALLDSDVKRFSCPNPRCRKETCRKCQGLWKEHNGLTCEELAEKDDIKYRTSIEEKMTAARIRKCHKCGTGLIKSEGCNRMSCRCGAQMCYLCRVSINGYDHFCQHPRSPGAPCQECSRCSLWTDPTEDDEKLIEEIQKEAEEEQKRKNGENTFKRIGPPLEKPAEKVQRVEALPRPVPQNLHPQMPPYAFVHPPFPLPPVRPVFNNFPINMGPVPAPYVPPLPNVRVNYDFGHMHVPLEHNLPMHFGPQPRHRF
UniProt P62631, whole entry: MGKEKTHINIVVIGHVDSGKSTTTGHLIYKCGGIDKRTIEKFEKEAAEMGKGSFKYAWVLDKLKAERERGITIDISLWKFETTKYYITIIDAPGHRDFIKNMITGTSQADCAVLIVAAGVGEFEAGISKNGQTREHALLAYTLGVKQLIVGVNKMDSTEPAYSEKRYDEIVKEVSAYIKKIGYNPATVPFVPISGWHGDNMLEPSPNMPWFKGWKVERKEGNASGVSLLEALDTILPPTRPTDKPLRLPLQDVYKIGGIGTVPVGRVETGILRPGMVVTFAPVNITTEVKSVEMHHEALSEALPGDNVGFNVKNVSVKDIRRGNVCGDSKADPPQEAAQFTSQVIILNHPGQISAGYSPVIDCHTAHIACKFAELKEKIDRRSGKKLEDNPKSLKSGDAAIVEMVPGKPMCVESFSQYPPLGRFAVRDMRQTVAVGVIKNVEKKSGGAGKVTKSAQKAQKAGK

The other results are listed elsewhere or left out. Small differences around the control level are noise.

Compound in this experiment: CN[C@@H]1C[C@H]2O[C@@](C)([C@@H]1OC)n1c3ccccc3c3c4c(c5c6ccccc6n2c5c31)C(=O)NC4 [staurosporine]
The experiment can be described thus: log2 fold change of tryptic peptide abundance, ligand vs vehicle (limited proteolysis) (log2 ratio); higher = more trypsin-susceptible (destabilized). The conditions noted are these: ligand concentration: 20 uM; sample: mouse liver crude lysate; replicate design: treated separately.

For the target “UniProt P56959 (peptide sequence: GGFPSGGGGGGGQQR, peptide start residue: 401)”, the log2 fold change stood at 0.227.

For “UniProt P62774 (peptide sequence: DYVAKGEDVNR, peptide start residue: 20)”, the log2 fold change is -0.194.

For “UniProt P54797 (peptide sequence: CIIFFKFDPRPVSK, peptide start residue: 2)”, the log2 fold change is 0.0999.

As to “UniProt P58283 (peptide sequence: HSESEMGPMFFR, peptide start residue: 187)”, the log2 fold change came out at 0.489.

In the case of “UniProt P62631 (peptide sequence: NVSVKDIR, peptide start residue: 314)”, the log2 fold change is -0.311.
